The supplement of paper PMC5949888
Most values lie at the floor of the assay. Slopes are relative: functional sequences can read slightly below zero.

tested on: Saccharomyces cerevisiae PS128 hsf1 delta, HSF1(1-493) fusion; test: growth estimate (transactivation domain function in HSF1 fusion, heat-shock survival) (a.u. (slope of normalised read count over time)); higher = stronger growth at 37°C, i.e. more transactivation activity; details: library: random library

Substance | growth estimate
YIHTRGSYMIINFRTSITYP | < -0.25
NGTRAALIGLWYRFHSDAQG | < -0.25
QYTRGDPLRQNVTEHPTLSM | < -0.25
RGISFLLSGMSGPRSTLPWL | < -0.25
IYARVLCLRS | -0.229
LVYP | < -0.25
SGLKDMLLEVVHV | < -0.25
NTGWQARCY | < -0.25
ANGKNGGGKGDSRAHASSTG | < -0.25
FVGWARREWGRATLHLHG | < -0.25
LVFPWYQKHKMMGISTSNTR | < -0.25
RGMLIRSQGCRIGRLVYALR | < -0.25
RASYWGLAV | < -0.25
CCISWPEARNTSAVQSARYT | < -0.25
NKVLVKIARFSSHV | < -0.25
PNLATATLLPVGHVSLIR | < -0.25
TFR | -0.248
VNLLGC | < -0.25
SIELMVVGSCDTSCRR | -0.246
REPIEIGSSSQPLSPRARV | < -0.25
PIVSL | < -0.25
PECQNQ | -0.245
PYQRHGLGLREC | < -0.25

Substance | growth estimate
SKRLTLLDRHRALSR | < -0.25
VPPRCGPVSFPGVSLGPVRR | < -0.25
ARNSA | < -0.25
GRSPGGHLEACSTDAMWSTA | < -0.25
TSFRVDQFY | < -0.25
CEFNVGNAHFASCVGVR | < -0.25
VSTRVPMITGSIRG | < -0.25
RWHAD | < -0.25
ADIQTVSEMLDRKVNAANRK | < -0.25
KVPARPAP | < -0.25
PKVGWTMLSGRMGLFVPAP | < -0.25
QRPSDVLNYESSSTYGPVYA | < -0.25
RSSNSGVDAGR | < -0.25
SPYTTLVTASCL | < -0.25
NTGGDCWRYYRKGLTRALWD | < -0.25
VVDQSM | < -0.25
IVIRGARDG | -0.248
DGLKKCDSRD | < -0.25
KVVVGEPPWLTYIKTLREQL | < -0.25
SRTSVKPNLYDSDCMGHKPS | < -0.25
AEQFWVRLSNTSI | < -0.25
PGRRGKSGVPTRERPERTYA | < -0.25
NVKVLCE | < -0.25

Substance | growth estimate
KQTYF | < -0.25
IYQCSDFSEFHFRS | -0.225
ENLVSGLMPRACEKSIESFR | < -0.25
WSSGGLPSVHVRFKRCTSLR | < -0.25
NTKLR | < -0.25
PLANRSHDD | < -0.25
IIRVCIRG | < -0.25
ITSEIFFTRNLQRGGDLVLN | < -0.25
LFVSRWLYLRVSRHTTTSHR | < -0.25
YRSEISIERRSRHRTSIEPG | -0.231
QGAKAQTACPVSSYFS | < -0.25
SDYVPGGTSIHRWARSVDYT | < -0.25
DPRSSPLT | < -0.25
CSGRYG | < -0.25
CVGQAGRHGKLRNTRRGGSC | < -0.25
ITTALFSQIPVIFGRNSGPF | < -0.25
FSGGTDPPR | < -0.25
VKRSLEIGVRLVVFKLTMPE | < -0.25
RTCGQVDRHTPRLALIKAAQ | < -0.25
SFQYTEGSARGQSIGKVESI | < -0.25
GVLVATFRVYSDMRNGRTA | -0.163
NTTLVAIHG | < -0.25
RVCAV | < -0.25

Some of the entries so far, field by field:
CCISWPEARNTSAVQSARYT
  growth estimate = < -0.25
CEFNVGNAHFASCVGVR
  growth estimate = < -0.25
NVKVLCE
  growth estimate = < -0.25
PLANRSHDD
  growth estimate = < -0.25

Going on with the list.

Substance | growth estimate
QVRCDIPFCLTISWGPRNLG | < -0.25
WIYPVRVLWRHPSGGELLSR | < -0.25
SRSEWTKNLPLPCVVKVTSA | < -0.25
GSSVDRLS | < -0.25
SVCQAFSFDTTAQATVYVVP | < -0.25
RYGSFTLLDISGPVLSNASQ | < -0.25
HHSIEPGL | < -0.25
ETPRVSASVCQGQWDPSVGA | < -0.25
SFSLSDSSDLPSFKSRLPDV | -0.246
KSRAFD | < -0.25
ICRLSMWCLRLFGEACGLKA | < -0.25
ERIRVGAGLGVRFQRRAWAA | < -0.25
AAARGRSHPLSSTDVSGWKT | < -0.25
VLQIFVSLTIISFRGFRPAS | < -0.25
AWAIISGGNVCKNGMGVPHL | < -0.25
PVQTSWEGF | < -0.25
FYCLSREGKSS | < -0.25
RIPIPQVYSPQANGVF | -0.248
EADV | < -0.25
SGAAYHDVLIYYKMNLGLAA | < -0.25
SPGLVGVGQYSWLGPR | < -0.25
TCADPVG | < -0.25
KLGCREPSSIQAPYPDVLV | < -0.25

Substance | growth estimate
IPHKLSRQQCGPVQHFSGPV | < -0.25
RTWSARRSPTLSLSITEVLW | < -0.25
RLSMLRLCVTEVKYRLHRPS | < -0.25
SNGERFLYAVVVWPSLGLPV | < -0.25
LRSRGTLSCECVCGVLTVVT | -0.243
MLCIRVDVSEHTLTLP | < -0.25
QLRCICVLIRWAVCR | -0.219
CIKAERID | < -0.25
SDA | < -0.25
QTGVTQQPSSIFFAYVVRGQ | < -0.25
CLTQPTRAYVDILNVADSQH | < -0.25
AYLYEGGPHVGYFRLGRKTC | < -0.25
HPGRLIIVLHRVHSSQNTYR | < -0.25
EKRAHVLRT | < -0.25
ADCARTRSAFS | < -0.25
VPHLGVSKTTSRRILCPAAT | < -0.25
STLKPIRHY | < -0.25
TSVRIDMVKLRMREIVCCFS | < -0.25
RDYAACR | < -0.25
SKTSEVSGLLWCPATMTSIF | < -0.25
RLWRLL | < -0.25
LSNGEQPGDNGCVRESPSKI | < -0.25
INPTQDIITVS | < -0.25

Substance | growth estimate
RSRDWLCTVRWCTLT | < -0.25
SGEGVY | < -0.25
SHTTVWSRHGRRRWQ | < -0.25
WPVAGDHATRTGRLTNKDRP | < -0.25
LAQSRATRLFI | < -0.25
HVLYTFEKSRLQLRHDGPTH | < -0.25
TKTVRSTRGLAFH | < -0.25
ADDQKSRSSWPPGSPALHHG | < -0.25
LMCSKLGTSGNSLGRRSPPS | -0.243
STRWMGTMVADYLKQCVQVP | < -0.25
GLNRKLCWGVHRCVLNNFPA | < -0.25
RRAKLCYICSDFSSGFLGLL | < -0.25
GLVRWHQLQDKGPNPNS | < -0.25
WECQRLDFAVR | < -0.25
TSLGIRTTHLGSKVSCGPVK | < -0.25
CTPKIEAFAGSKNAQSVVWT | < -0.25
STIDLRSAWKQRVFHPVKAH | < -0.25
LSHLPGSVGRSFVRDYHKVA | < -0.25
LGY | < -0.25
SQRSGVPAVRVCARSPRTED | < -0.25
RAVLARAFHARGGKSHGIWH | < -0.25
GGVAHREAKGVDEFMRVCAV | < -0.25
SERCWEVFSLGKLANRGEQG | < -0.25

Substance | growth estimate
GWGEEN | < -0.25
MSRASIHEPNGICCRSDSAV | < -0.25
MGLAWCKC | < -0.25
SRYSNVVFQWARV | < -0.25
GPGLWSGYSAIQIPRDEFRD | -0.159
CEVHICSKQITGSILTVSLL | < -0.25
GCPRPNVCTGFL | < -0.25
SYTTQGTAAQRQAFDADDVG | < -0.25
HSSCRSDASLAKP | < -0.25
GIYRTSALRVSGNGNAPKTL | < -0.25
LSGLSDYQLAT | -0.185
TLRLSMCTWNKK | < -0.25
REFADKRCAV | < -0.25
ATTSLYALLLALHFVDFIIT | < -0.25
PGVYSSQRELSLPASGGALR | < -0.25
RGQ | < -0.25
TPNSST | < -0.25
SCPLVGESCCARGAGNRFRR | < -0.25

Quoted at random: 7 entries already listed
Substance | growth estimate
SRYSNVVFQWARV | < -0.25
GIYRTSALRVSGNGNAPKTL | < -0.25
HSSCRSDASLAKP | < -0.25
GWGEEN | < -0.25
REFADKRCAV | < -0.25
PGVYSSQRELSLPASGGALR | < -0.25
ATTSLYALLLALHFVDFIIT | < -0.25
